Among all 580,000 compounds or so, about 6,100 (1.1%) were called active. Inconclusive results, whose numbers are uncertain, are shown with a selection of clear calls. Calls follow the shape of the dose curve; as a rule, active = well fitted inhibition curve with a large enough effect; inconclusive = small, poorly fitted or top-dose-only effect, or another doubt; inactive = no such curve, though single readings can be large or run the other way. Potencies of inconclusive entries are doubtful fits and often do not repeat.
target: Polyunsaturated fatty acid lipoxygenase ALOX12 (Homo sapiens) (UniProt P18054); test: Primary qHTS assay for inhibitors of human arachidonate 12S-lipoxygenase (ALOX12): Round 2; conditions: purified 12hLO, xylenol orange hydroperoxide absorbance; series mostly up to 108 µM
Procedure, shortened: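 Purified human 12hLO (150 nM final) in 25 mM Hepes, 0.01% Triton X-100, pH 7.0 was preincubated 15 min at room temperature with compound. Then 40 uM arachidonic acid was added, 30 min. Hydroperoxide was read by Fe-XO absorbance ratio 573/405 nm.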
Potency is read from the fitted curve at half-maximal effect.

The chains behind the UniProt entries cited, without tags or fusion partners. Where a name states a change or a piece, a line headed by the entry shows the natural chain unless it says otherwise.
UniProt P18054: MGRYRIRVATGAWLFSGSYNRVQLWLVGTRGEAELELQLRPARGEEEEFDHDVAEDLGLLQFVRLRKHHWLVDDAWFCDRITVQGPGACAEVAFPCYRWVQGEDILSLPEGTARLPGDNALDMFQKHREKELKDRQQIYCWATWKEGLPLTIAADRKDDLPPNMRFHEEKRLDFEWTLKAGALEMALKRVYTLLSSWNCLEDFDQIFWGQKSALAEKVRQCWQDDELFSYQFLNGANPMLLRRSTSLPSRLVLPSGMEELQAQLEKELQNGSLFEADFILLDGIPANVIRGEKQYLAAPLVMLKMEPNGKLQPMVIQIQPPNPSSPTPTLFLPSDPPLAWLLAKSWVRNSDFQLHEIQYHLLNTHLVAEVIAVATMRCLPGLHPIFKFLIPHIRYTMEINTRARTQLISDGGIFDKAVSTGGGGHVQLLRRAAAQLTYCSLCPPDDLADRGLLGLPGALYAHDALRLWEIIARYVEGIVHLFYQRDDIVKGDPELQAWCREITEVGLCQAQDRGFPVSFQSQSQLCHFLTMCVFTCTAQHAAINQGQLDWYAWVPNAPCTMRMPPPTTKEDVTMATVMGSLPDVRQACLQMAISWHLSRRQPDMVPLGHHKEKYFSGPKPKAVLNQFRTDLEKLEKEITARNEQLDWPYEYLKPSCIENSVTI

Row | SMILES | Potency
1 | O=C1CC(c2ccc3c(c2)OCCO3)Oc2ccccc21 (stereo not drawn) | inactive
2 | CC(C)CNc1nc(-c2ccc3c(c2)CC(C)N3S(C)(=O)=O)cs1 (stereo not drawn) | inconclusive: 39.8 µM [inhibitor, partial curve, poor fit]
3 | CCc1ccc2c(c1)-c1ccccc1S(=O)(=O)N2CC(=O)NCc1ccncc1 | inactive
4 | COc1ccc(NC(C)=O)cc1NC(=O)/C=C/c1nc2ccccc2o1 | inconclusive: 1.26 µM [inhibitor, full curve, poor fit]
5 | COC(=O)C1=C(C)N(CC(C)C)C(=S)NC1c1cccc(Br)c1 (stereo not drawn) | inconclusive: 44.7 µM [inhibitor, partial curve, poor fit]
6 | Oc1ccc(NC(=S)N=Nc2c(O)[nH]c3ccccc23)cc1 | inconclusive: 79.4 µM [inhibitor, partial curve, poor fit]
7 | CCC(C(=O)NCc1ccc(C)cc1)N1C(=O)CCn2nc(C)cc21 (stereo not drawn) | inactive
8 | Cc1ccc(C(=O)NCCC(c2ccccc2)c2ccccc2)cn1 | inconclusive: 39.8 µM [inhibitor, single point]
9 | Cc1cccc(NC(=S)N2CCCCC2)c1 | inconclusive: 126 µM [inhibitor, partial curve, poor fit]
10 | Cc1ccc(S(=O)(=O)N(CC(=O)NCCSc2ccccn2)c2cc(C)cc(C)c2)cc1 | inconclusive: 112 µM [inhibitor, single point]
11 | CCC(C)c1ccc(S(=O)(=O)N2CCN(CC(O)COCC3CCCO3)CC2)cc1 (stereo not drawn) | inconclusive: 0.562 µM [inhibitor, full curve]
12 | O=C(O)CSc1ncnc2c1oc1ccccc12 | inactive
13 | OC(CNCc1ccc(Cl)cc1)COc1ccccc1 (stereo not drawn) | inconclusive: 39.8 µM [inhibitor, partial curve]
14 | CN(CCOC(=O)c1ccc2c(c1)OCCO2)Cc1ccccc1 | inconclusive: 39.8 µM [inhibitor, partial curve, poor fit]
15 | COc1ccc(-c2ccc(=O)n(CC(=O)Nc3nnc(C(C)C)s3)n2)cc1OC | inconclusive: 89.1 µM [inhibitor, partial curve, poor fit]
16 | Cc1ccc(C2NC(=O)N(CC(=O)Nc3ccccc3)C3=C2C(=O)OC3)cc1 (stereo not drawn) | inconclusive: 10 µM [inhibitor, full curve]
17 | Cc1cccc(N2CCc3c2nc2ccc(Br)cc2c3N)c1 | inconclusive: 50.1 µM [inhibitor, partial curve, poor fit]
18 | CCCCCOc1nc2ccccc2nc1NS(=O)(=O)c1ccccc1 | inconclusive: 35.5 µM [inhibitor, single point]
19 | Cc1c(OC(C(=O)O)c2ccccc2)ccc2c3c(c(=O)oc12)CCC3 (stereo not drawn) | inactive
20 | COCCCN1CC2(CCN(C(=O)C(=O)c3cccn3C)CC2)CC1=O | inactive
21 | Cc1nc2c(c(-c3ccc(Cl)cc3)n1)CCN(C(=O)c1ccc(F)cc1)CC2 | inconclusive: 28.2 µM [inhibitor, partial curve, poor fit]
22 | Cc1ccc(Nc2nc(=O)[nH]nc2C)cc1 | inactive
23 | NC(=O)c1cccnc1N1CCC2(CCCN(Cc3ccccc3F)C2)C1 (stereo not drawn) | inactive

2 entries drawn at random from the list so far:
Row | SMILES | Potency
4 | COc1ccc(NC(C)=O)cc1NC(=O)/C=C/c1nc2ccccc2o1 | inconclusive: 1.26 µM [inhibitor, full curve, poor fit]
13 | OC(CNCc1ccc(Cl)cc1)COc1ccccc1 (stereo not drawn) | inconclusive: 39.8 µM [inhibitor, partial curve]

Additional results:

Row | SMILES | Potency
24 | COc1c(/C=N/NC(=O)[C@H]2C[C@@H]2c2ccccc2)c(CCN(C)C(C)=O)cc2c1OCO2 | inactive
25 | CC(=O)N1N=C(c2cccc([N+](=O)[O-])c2)OC1c1ccc(Br)cc1 (stereo not drawn) | inactive
26 | O=C(Nc1ccc(N2CCOCC2)c(S(=O)(=O)Nc2ccc(Cl)cc2)c1)c1ccc(=O)[nH]n1 | inconclusive: 79.4 µM [inhibitor, single point]
27 | CC1Oc2ccc(NC(=O)CC(C)(C)C)cc2CN(Cc2ccccc2F)C1=O (stereo not drawn) | inactive
28 | O=C1NCCN(Cc2cccc(Oc3ccccc3)c2)C1CC(=O)N1CCCO1 (stereo not drawn) | inconclusive: 2.24 µM [inhibitor, full curve, poor fit]
29 | COc1cc([N+](=O)[O-])cc(/C=N/NC(=O)C(O)(c2ccccc2)c2ccccc2)c1O | inactive
30 | CCCCn1nc(C(=O)NCc2ccccn2)c2ccccc2c1=O | inactive
31 | O=C(NC(=S)Nc1ccc(Cc2ccncc2)cc1)c1ccc(F)cc1 | inconclusive: 44.7 µM [inhibitor, partial curve, poor fit]
32 | CCCc1ccc(C(C)NC(=S)NCc2ccc(F)cc2)cc1 (stereo not drawn) | active: 31.6 µM
33 | O=C(Nc1c(C(=O)N2CCN(c3ccccc3)CC2)oc2ccccc12)c1ccco1 | inactive
34 | CC(C)C1C(=O)N(Cc2cn(CCC3OCCO3)nn2)CCS(=O)(=O)N1Cc1ccc(-c2ccccc2C(F)(F)F)cc1 (stereo not drawn) | inconclusive: 100 µM [inhibitor, single point]
35 | O=C(Nc1ccc(C(=O)N2CCCC2)cc1)C1CCC1 | inactive
36 | C/C(=N\Nc1ccc(F)cc1)c1ccc(N2CCOCC2)c(F)c1 | inconclusive: 50.1 µM [inhibitor, partial curve, poor fit]
37 | CCCCCCCCCCS(=O)(=O)CCSC(=N)N | inconclusive: 15.8 µM [inhibitor, full curve, poor fit]
38 | Cc1ccc(NNC(=O)CCc2ccccc2)c(C)c1 | inconclusive: 112 µM [inhibitor, single point]
39 | COc1ccc(NC(=S)NC(=NS(=O)(=O)c2ccc(Cl)cc2)c2ccccc2)cc1 | active: 31.6 µM
40 | O=C(CCC1CCCCC1)NNC(=O)c1cnccn1 | inactive
41 | CCOC(=O)N1CCN(C(=O)c2ccc3c(c2)N(Cc2ccc(F)cc2)CCS3)CC1 | inactive
42 | CC1CCN(C(=O)CSc2nnc3c(n2)[nH]c2ccccc23)CC1 | inactive
43 | C=C(C)c1cccc(C(C)(C)NC(=O)N(C)CCC#N)c1 | inactive
44 | O=C1c2cccc3cc([N+](=O)[O-])cc(c23)C(=O)N1/N=C/c1ccc(O)cc1O | inactive
45 | Cc1ccccc1CN1c2ccccc2-c2nc(SCC(=O)NCc3ccccc3)ncc2S1(=O)=O | inconclusive: 100 µM [inhibitor, single point]
46 | NS(=O)(=O)c1ccc(CCNC(=O)CCc2nc3sc4c(c3c(=O)[nH]2)CCCC4)cc1 | inconclusive: 126 µM [inhibitor, partial curve, poor fit]

3 structures out of the list, ordered by length of the SMILES, descending.
Row | SMILES | Potency
27 | CC1Oc2ccc(NC(=O)CC(C)(C)C)cc2CN(Cc2ccccc2F)C1=O (stereo not drawn) | inactive
30 | CCCCn1nc(C(=O)NCc2ccccn2)c2ccccc2c1=O | inactive
32 | CCCc1ccc(C(C)NC(=S)NCc2ccc(F)cc2)cc1 (stereo not drawn) | active: 31.6 µM

Additional compounds follow.

Row | SMILES | Potency
47 | O=C(O)c1cc(-c2cccs2)nc2ccc(Cl)cc12 | inconclusive: 35.5 µM [inhibitor, partial curve]
48 | CCOc1cc(CNCc2cccs2)cc(Br)c1OC | inconclusive: 44.7 µM [inhibitor, single point]
49 | C=C1C(=O)C23C(O)C1CCC2C12CCCC(C)(COC(C)=O)C1C(O)C3(O)OC2 (stereo not drawn) | inactive
50 | CCN(CC)c1ccc(NC(=O)c2sc3nc4c(cc3c2N)CN(C)CC4)cc1 | inconclusive: 39.8 µM [inhibitor, single point]
51 | CC(C)(C)C(=O)C1=C(O)C(=O)N(c2ccccc2)C1c1ccccc1 (stereo not drawn) | inconclusive: 31.6 µM [inhibitor, single point]
52 | O=C1c2ccccc2C(=O)N1C1CCCCC1 | inconclusive: 14.1 µM [inhibitor, partial curve, poor fit]
53 | Cc1ccccc1NC(=O)CN1C(=O)S/C(=C\c2ccc(-c3cc(C(=O)O)ccc3C)o2)C1=O | inconclusive: 12.6 µM [inhibitor, full curve]
54 | Cc1ccc(/C=N/Nc2ccc(C(=O)O)cc2)s1 | inconclusive: 44.7 µM [inhibitor, partial curve, poor fit]
55 | COc1cc(C=NNC(=O)c2ccc(NS(=O)(=O)c3cccs3)cc2)cc(Br)c1O | inconclusive: 5.62 µM [inhibitor, full curve, poor fit]
56 | NC1(C#Cc2ccc(F)c(-c3noc4ccccc34)c2)CCCCC1 | inconclusive: 79.4 µM [inhibitor, single point]
57 | CN(C)S(=O)(=O)c1cccc(NC(=O)c2cc(-c3cccs3)nn2-c2ccccc2)c1 | inactive
58 | O=C1C=C(c2ccc(C(=O)O)c(Cl)c2)C[C@@H](c2ccc3c(c2)OCO3)C1 | inconclusive: 35.5 µM [inhibitor, partial curve]
59 | COc1ccc(N/C=C/c2nc(SC)nnc2C)cc1 | inconclusive: 28.2 µM [inhibitor, partial curve, poor fit]
60 | O=C(Nc1ccc2nc(SCC(=O)N3CCc4ccccc43)sc2c1)c1cccc(Cl)c1 | inactive
61 | O=C(O[C@@H](C(=O)O)[C@@H](OC(=O)c1ccccc1)C(=O)O)c1ccccc1 | inconclusive: 44.7 µM [inhibitor, partial curve, poor fit]
62 | Cn1c(=O)c(-c2cccs2)nc2cnc(N3CCNCC3)nc21 | inconclusive: 28.2 µM [inhibitor, partial curve, poor fit]
63 | CC1=C(C(=O)N(C(C)C)C(C)C)CC(CC(=O)NCCCN(C)C)C(=O)N1Cc1ccc(F)cc1 (stereo not drawn) | inconclusive: 5.62 µM [inhibitor, partial curve, poor fit]
64 | Cc1ccc(CCNC(=O)CCS(=O)(=O)c2cc3c(cc2C)NC(=O)CO3)cc1 | inconclusive: 141 µM [inhibitor, single point]
65 | CC(C)CC(NC(=O)c1cc2ccccc2s1)C(=O)O (stereo not drawn) | inconclusive: 7.08 µM [inhibitor, full curve]
66 | O=C(CCN1C(=O)S/C(=C\c2ccc(F)cc2)C1=O)Nc1ccc(C(=O)O)c(O)c1 | inconclusive: 56.2 µM [inhibitor, partial curve, poor fit]
67 | CC1(C)Cc2c(c(-c3ccco3)[nH]c(=O)c2C#N)CS1 | inconclusive: 7.08 µM [inhibitor, partial curve, poor fit]
68 | CC(C)OC(=O)/C(C#N)=C/c1cn(C)c2ccccc12 | inconclusive: 5.62 µM [inhibitor, full curve, poor fit]
